{"source": "PubChem BioAssay AID463205", "about": "(Broad Institute, 2010)", "note": "Among all 2,400 compounds or so, about 20 (0.8%) were called active.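 How the source made its calls: active means AC50 no more than ten times the highest tested concentration, or full inhibition at every dose giving a flat fit (cut at about 30 µM in these data); inconclusive means flat fit with activity between 30% and 70%, or poor-quality invalid fit; inactive means AC50 more than ten times the top tested dose.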 The list shows a part of the results.", "data": [{"experiment": "luciferase-based ADP detection interference – biochemical, luminescence, cell-free, homogeneous, artefact control for GSK-3a inhibitor project, dose response (AID 463205);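 further: kinase-free counter-screen against the ADP-Glo detection reagents only; potency is for inhibitors that reduce the luminescence signal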", "details": "Cell-free ADP-Glo detection reagents, 5 uM ADP", "values": [{"smiles": "COc1cc2c3c(c1OC)-c1cc(O)ccc1CC3NCC2", "note": "(stereo not given)", "AC50": "inactive: > 30 µM"}, {"smiles": "CCC(=NCCCO)c1c(O)n(-c2ccc(OC)cc2)c(=O)[nH]c1=O", "AC50": "inactive: > 30 µM"}, {"smiles": "COc1ccc2nc(NC(=O)CCc3nc(C4=CCN(C)CC4)no3)sc2c1", "AC50": "inactive: > 30 µM"}, {"smiles": "C=CCn1c(O)c(C=NCCCn2ccnc2)c(=O)[nH]c1=O", "AC50": "inactive: > 30 µM"}, {"smiles": "O=C(NCc1ccc(C(=O)N2CCC3(CC2)OCCO3)cc1)c1ccc2c(c1)OCO2", "AC50": "inactive: > 30 µM"}, {"smiles": "O=C1Nc2ccccc2Sc2ccccc21", "AC50": "inactive: > 30 µM"}, {"smiles": "O=c1[nH]c(=S)n(C2CC2)c(O)c1C=NCc1cccnc1", "AC50": "inactive: > 30 µM"}, {"smiles": "CC(C)N1C(=O)/C(=C/C=C/c2ccco2)C(=O)N(Cc2ccco2)C1=O", "AC50": "inactive: > 30 µM"}, {"smiles": "CCCCn1c(O)c(C(CC)=NCCCn2ccnc2)c(=O)[nH]c1=O", "AC50": "inactive: > 30 µM"}, {"smiles": "C[C@H]1CCC[C@H](O)CCCCCc2cc(O)cc(O)c2C(=O)O1", "AC50": "inactive: > 30 µM"}, {"smiles": "O=c1[nH]c(=S)n(CCC2=CCCCC2)c(O)c1C=NCCCn1ccnc1", "AC50": "inactive: > 30 µM"}, {"smiles": "CC(Cc1ccsc1)NCc1cn[nH]c1-c1ccc(F)cc1F", "note": "(stereo not given)", "AC50": "inactive: > 30 µM"}, {"smiles": "COc1ccccc1-n1c(O)c(C=NCc2ccc3c(c2)OCO3)c(=O)[nH]c1=O", "AC50": "inactive: > 30 µM"}, {"smiles": "CCC(=NCCO)c1c(O)n(C2CCCCC2)c(=O)[nH]c1=O", "AC50": "inactive: > 30 µM"}, {"smiles": "CC1CCC[C@H](O)CCCCCc2cc(O)cc(O)c2C(=O)O1", "note": "(stereo not given in full)", "AC50": "inactive: > 30 µM"}, {"smiles": "Oc1ccc(/C=N/NP(=S)(c2ccccc2)c2ccccc2)cc1O", "AC50": "inactive: > 30 µM"}, {"smiles": "NC(=O)c1cn(C2OC(CO)C(O)C2O)c2ncnc(N)c12", "note": "(stereo not given)", "AC50": "inactive: > 30 µM"}, {"smiles": "CCC(=NCCCn1ccnc1)c1c(O)n(-c2ccc(OC)cc2)c(=O)[nH]c1=O", "AC50": "inactive: > 30 µM"}, {"smiles": "O=[N+]([O-])c1cccnc1N1CCCNCC1", "AC50": "inactive: > 30 µM"}, {"smiles": "O=C(c1ccc2c(c1)OCO2)N1CCC2(CC1)OCCO2", "AC50": "inactive: > 30 µM"}, {"smiles": "COc1ccccc1-n1c(O)c(C=NCCCn2ccnc2)c(=O)[nH]c1=O", "AC50": "inactive: > 30 µM"}, {"smiles": "COc1ccc(-n2c(O)c(C(C)=NCCCn3ccnc3)c(=O)[nH]c2=O)cc1", "AC50": "inactive: > 30 µM"}, {"smiles": "O=C(NCc1ccc(C(=O)N2CCC3(CC2)OCCO3)cc1)c1cccc(Br)c1", "AC50": "inactive: > 30 µM"}, {"smiles": "CCCCn1c(O)c(C=NCCCn2ccnc2)c(=O)[nH]c1=O", "AC50": "inactive: > 30 µM"}, {"smiles": "CCOc1ccccc1-n1c(O)c(C=NCc2ccc3c(c2)OCO3)c(=O)[nH]c1=O", "AC50": "inactive: > 30 µM"}, {"smiles": "O=c1[nH]c(=O)n(Cc2ccco2)c(O)c1C=NCCCn1ccnc1", "AC50": "inactive: > 30 µM"}, {"smiles": "CCOc1ccc(-n2c(O)c(C=NCCCn3ccnc3)c(=O)[nH]c2=O)cc1", "AC50": "inactive: > 30 µM"}, {"smiles": "COc1ccc(-n2c(O)c(C=NCCN3CCN(C(C)=O)CC3)c(=O)[nH]c2=S)cc1", "AC50": "inactive: > 30 µM"}, {"smiles": "O=C1CN=C(c2cccc(Br)c2)c2cc(Br)ccc2N1", "AC50": "inactive: > 30 µM"}, {"smiles": "CN(C)C(=O)Oc1ccc(OC(=O)N(C)C)cc1", "AC50": "inactive: > 30 µM"}, {"smiles": "O=c1[nH]c(=O)n(C2CCCCCC2)c(O)c1C=NCCCN1CCOCC1", "AC50": "inactive: > 30 µM"}, {"smiles": "CCN1C(=O)C(=C2C=C(C)N(Cc3ccco3)C(C)=C2)C(=O)N(CC)C1=S", "AC50": "inactive: > 30 µM"}, {"smiles": "Nc1ncc([N+](=O)[O-])s1", "AC50": "inactive: > 30 µM"}, {"smiles": "CCC(=NCc1ccco1)c1c(O)[nH]c(=O)[nH]c1=O", "AC50": "inactive: > 30 µM"}, {"smiles": "Cc1ccccc1NC1=NCCCS1", "AC50": "inactive: > 30 µM"}, {"smiles": "C=CCn1c(O)c(C(C)=NCCCn2ccnc2)c(=O)[nH]c1=O", "AC50": "inactive: > 30 µM"}, {"smiles": "Cn1c(O)c(C=NC2CCN(Cc3ccccc3)CC2)c(=O)[nH]c1=O", "AC50": "inactive: > 30 µM"}, {"smiles": "CN(C)C(=O)Oc1ccc2c(c1)O/C(=C\\c1cccc([N+](=O)[O-])c1)C2=O", "AC50": "inactive: > 30 µM"}, {"smiles": "COc1ccc(-n2c(O)c(C=NCc3ccc4c(c3)OCO4)c(=O)[nH]c2=O)cc1", "AC50": "inactive: > 30 µM"}, {"smiles": "CCCCn1c(O)c(C=NCCCN(CC)CC)c(=O)[nH]c1=O", "AC50": "inactive: > 30 µM"}, {"smiles": "CCCCCCN=C(CC)c1c(O)n(CCCC)c(=O)[nH]c1=O", "AC50": "inactive: > 30 µM"}, {"smiles": "O=c1[nH]c(=O)n(C2CCCCC2)c(O)c1C=NCCCn1ccnc1", "AC50": "inactive: > 30 µM"}, {"smiles": "CN1CCc2nc3sc(C(=O)NC4CC4)c(N)c3cc2C1", "AC50": "inactive: > 30 µM"}, {"smiles": "COc1cc2c(cc1OC)-c1c(OC)c(OC)c(OC)c3ccnc(c13)C2=O", "AC50": "inactive: > 30 µM"}, {"smiles": "CN(C(=O)CN1CC=C(c2ccccc2)CC1)c1c(N)n(Cc2ccccc2)c(=O)[nH]c1=O", "AC50": "inactive: > 30 µM"}, {"smiles": "CSc1nnc([C@@H](N)Cc2c[nH]c3ccccc23)o1", "AC50": "inactive: > 30 µM"}, {"smiles": "O=c1[nH]c(=O)n(CCC2=CCCCC2)c(O)c1C=NCCCn1ccnc1", "AC50": "inactive: > 30 µM"}, {"smiles": "Nc1c(C(=O)NCc2ccco2)c2nc3ccccc3nc2n1CCN1CCOCC1", "AC50": "inactive: > 30 µM"}, {"smiles": "CCCCn1c(O)c(C(C)=NCCCn2ccnc2)c(=O)[nH]c1=O", "AC50": "inactive: > 30 µM"}, {"smiles": "O=c1[nH]c(=S)n(Cc2ccc(F)cc2)c(O)c1C=NCCCn1ccnc1", "AC50": "inactive: > 30 µM"}]}]}
